# This is one part of the list.
# Key:
# Test in all cases: glycan array binding signal (z-score within array); higher = stronger binding
# Conditions in all cases: glycan notation: IUPAC condensed, linker removed
# [1] = target: Neu5Ac(a2-6)Gal(b1-4)GlcNAc(b1-3)Gal(b1-4)GlcNAc(b1-3)Gal(b1-4)GlcNAc
# Outline: (§1)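 The binding signal is a Z-score computed within each array. Data were drawn from 3228 arrays in the Consortium for Functional Glycomics database, restricted to those with a known protein sequence. Scores were averaged over arrays of the same protein sequence at different concentrations or buffers, and over linkers, and negative values can be taken as non-binding.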
# [2] = target: Neu5Ac(a2-6)Gal(b1-4)GlcNAc(b1-3)Gal(b1-4)GlcNAc(b1-3)Gal(b1-4)GlcNAc(b1-2)Man(a1-3)[Neu5Ac(a2-6)Gal(b1-4)GlcNAc(b1-3)Gal(b1-4)GlcNAc(b1-3)Gal(b1-4)GlcNAc(b1-2)Man(a1-6)]GalNAc
# Outline: as §1
# [3] = target: Neu5Ac(a2-6)Gal(b1-4)GlcNAc(b1-3)Gal(b1-4)GlcNAc(b1-3)GalNAc
# Outline: as §1
# [4] = target: Neu5Ac(a2-6)Gal(b1-4)GlcNAc(b1-3)Gal(b1-4)GlcNAc(b1-3)[Neu5Ac(a2-6)Gal(b1-4)GlcNAc(b1-3)Gal(b1-4)GlcNAc(b1-6)]GalNAc
# Outline: as §1
# [5] = target: Neu5Ac(a2-6)Gal(b1-4)GlcNAc(b1-3)Gal(b1-4)GlcNAc(b1-6)[Gal(b1-3)]GalNAc
# Outline: as §1
# [6] = target: Neu5Ac(a2-6)Gal(b1-4)GlcNAc(b1-3)Gal(b1-4)[Fuc(a1-3)]GlcNAc(b1-3)Gal(b1-4)[Fuc(a1-3)]GlcNAc
# Outline: as §1
# [7] = target: Neu5Ac(a2-6)Gal(b1-4)GlcNAc(b1-3)GalNAc
# Outline: as §1
# [8] = target: Neu5Ac(a2-6)Gal(b1-4)GlcNAc(b1-3)[Neu5Ac(a2-6)Gal(b1-4)GlcNAc(b1-6)]GalNAc
# Outline: as §1
# [9] = target: Neu5Ac(a2-6)Gal(b1-4)GlcNAc(b1-6)GalNAc
# Outline: as §1
# [10] = target: Neu5Ac(a2-6)Gal(b1-4)GlcNAc(b1-6)[Gal(b1-3)GlcNAc(b1-3)]Gal(b1-4)Glc
# Outline: as §1
# [11] = target: Neu5Ac(a2-6)Gal(b1-4)GlcNAc(b1-6)[Gal(b1-3)]GalNAc
# Outline: as §1
# [12] = target: Neu5Ac(a2-6)Gal(b1-4)GlcNAc6S
# Outline: as §1
# Neu5Ac(a2-6)GalNAc = target: Neu5Ac(a2-6)GalNAc
# Outline: as §1
# [13] = target: Neu5Ac(a2-6)GalNAc(b1-4)GlcNAc
# Outline: as §1
# [14] = target: Neu5Ac(a2-6)GalNAc(b1-4)GlcNAc6S
# Outline: as §1
# [15] = target: Neu5Ac(a2-6)GlcNAc(b1-4)GlcNAc
# Outline: as §1
# [16] = target: Neu5Ac(a2-6)GlcNAc(b1-4)GlcNAc(b1-4)GlcNAc
# Outline: as §1
# Neu5Ac(a2-8)Neu5Ac = target: Neu5Ac(a2-8)Neu5Ac
# Outline: as §1
# [17] = target: Neu5Ac(a2-8)Neu5Ac(a2-3)Gal(b1-3)GalNAc(b1-4)[Neu5Ac(a2-3)]Gal(b1-4)Glc
# Outline: as §1
# [18] = target: Neu5Ac(a2-8)Neu5Ac(a2-3)Gal(b1-3)GalNAc(b1-4)[Neu5Ac(a2-8)Neu5Ac(a2-3)]Gal(b1-4)Glc
# Outline: as §1
# [19] = target: Neu5Ac(a2-8)Neu5Ac(a2-3)Gal(b1-4)Glc
# Outline: as §1
# [20] = target: Neu5Ac(a2-8)Neu5Ac(a2-3)Gal(b1-4)GlcNAc
# Outline: as §1
# [21] = target: Neu5Ac(a2-8)Neu5Ac(a2-3)[Gal(b1-3)GalNAc(b1-4)]Gal(b1-4)Glc
# Outline: as §1
# [22] = target: Neu5Ac(a2-8)Neu5Ac(a2-3)[GalNAc(b1-4)]Gal(b1-4)Glc
# Outline: as §1
# [23] = target: Neu5Ac(a2-8)Neu5Ac(a2-8)Neu5Ac
# Outline: as §1
# [24] = target: Neu5Ac(a2-8)Neu5Ac(a2-8)Neu5Ac(a2-3)Gal(b1-4)Glc
# Outline: as §1
# [25] = target: Neu5Ac(a2-8)Neu5Ac(a2-8)Neu5Ac(a2-3)[Gal(b1-3)GalNAc(b1-4)]Gal(b1-4)Glc
# Outline: as §1
# [26] = target: Neu5Ac(a2-8)Neu5Ac(a2-8)Neu5Ac(a2-3)[GalNAc(b1-4)]Gal(b1-4)Glc
# Outline: as §1
# [27] = target: Neu5Ac(a2-8)Neu5Ac(a2-8)Neu5Ac(a2-8)Neu5Ac(a2-3)[GalNAc(b1-4)]Gal(b1-4)Glc
# Outline: as §1
# [28] = target: Neu5Ac(a2-8)Neu5Gc(a2-3)Gal(b1-4)GlcNAc
# Outline: as §1
# [29] = target: Neu5Ac(b2-6)Gal(b1-4)GlcNAc
# Outline: as §1
# Neu5Ac(b2-6)GalNAc = target: Neu5Ac(b2-6)GalNAc
# Outline: as §1
# [30] = target: Neu5Ac9Ac(a2-3)Gal(b1-3)GlcNAc
# Outline: as §1
# [31] = target: Neu5Ac9Ac(a2-3)Gal(b1-4)GlcNAc
# Outline: as §1
# [32] = target: Neu5Ac9Ac(a2-6)Gal(b1-4)GlcNAc
# Outline: as §1
# [33] = target: Neu5Gc(a2-3)Gal(b1-3)GlcNAc
# Outline: as §1
# [34] = target: Neu5Gc(a2-3)Gal(b1-3)[Fuc(a1-4)]GlcNAc
# Outline: as §1
# Neu5Gc(a2-3)Gal(b1-4)Glc = target: Neu5Gc(a2-3)Gal(b1-4)Glc
# Outline: as §1
# [35] = target: Neu5Gc(a2-3)Gal(b1-4)GlcNAc
# Outline: as §1
# [36] = target: Neu5Gc(a2-3)Gal(b1-4)GlcNAc(b1-3)Gal(b1-4)GlcNAc(b1-2)Man(a1-3)[Neu5Gc(a2-3)Gal(b1-4)GlcNAc(b1-3)Gal(b1-4)GlcNAc(b1-2)Man(a1-6)]Man(b1-4)GlcNAc(b1-4)GlcNAc
# Outline: as §1
# [37] = target: Neu5Gc(a2-3)Gal(b1-4)[Fuc(a1-3)]GlcNAc
# Outline: as §1
# [38] = target: Neu5Gc(a2-6)Gal(b1-4)GlcNAc
# Outline: as §1
# Neu5Gc(a2-6)GalNAc = target: Neu5Gc(a2-6)GalNAc
# Outline: as §1
# [39] = target: Neu5Gc(a2-8)Neu5Ac(a2-3)Gal(b1-4)GlcNAc
# Outline: as §1
# [40] = target: Neu5Gc(a2-8)Neu5Gc(a2-3)Gal(b1-4)GlcNAc
# Outline: as §1
binder,measurement,setting,value
"DC-Sign-R (Homo sapiens), Q9H2X3 (protein) MSDSKEPRVQQLGLLEEDPTTSGIRLFPRDFQFQQIHGHKSSTGCLGHGALVLQLLSFMLLAGVLVAILVQVSKVPSSLSQEQSEQDAIYQNLTQLKAAVGELSEKSKLQEIYQELTQLKAAVGELPEKSKLQEIYQELTRLKAAVGELPEKSKLQEIYQELTRLKAAVGELPEKSKLQEIYQELTRLKAAVGELPEKSKLQEIYQELTELKAAVGELPEKSKLQEIYQELTQLKAAVGELPDQSKQQQIYQELTDLKTAFERLCRHCPKDWTFFQGNCYFMSNSQRNWHDSVTACQEVRAQLVVIKTAEEQNFLQLQTSRSNRFSWMGLSDLNQEGTWQWVDGSPLSPSFQRYWNSGEPNNSGNEDCAEFSGSGWNDNRCDVDNYWICKKPAACFRDE",glycan array binding signal (z-score),[1],-0.326
same,glycan array binding signal (z-score),[2],2.81
same,glycan array binding signal (z-score),[3],2.11
same,glycan array binding signal (z-score),[4],0.528
same,glycan array binding signal (z-score),[5],-0.577
same,glycan array binding signal (z-score),[6],0.007
same,glycan array binding signal (z-score),[7],1.5
same,glycan array binding signal (z-score),[8],-0.32
same,glycan array binding signal (z-score),[9],-0.471
same,glycan array binding signal (z-score),[10],0.956
same,glycan array binding signal (z-score),[11],1.1
same,glycan array binding signal (z-score),[12],-0.111
same,glycan array binding signal (z-score),Neu5Ac(a2-6)GalNAc,-0.552
same,glycan array binding signal (z-score),[13],0.35
same,glycan array binding signal (z-score),[14],-0.428
same,glycan array binding signal (z-score),[15],-0.047
same,glycan array binding signal (z-score),[16],0.07
same,glycan array binding signal (z-score),Neu5Ac(a2-8)Neu5Ac,-0.005
same,glycan array binding signal (z-score),[17],-0.694
same,glycan array binding signal (z-score),[18],-0.632
same,glycan array binding signal (z-score),[19],0.272
same,glycan array binding signal (z-score),[20],2.4
same,glycan array binding signal (z-score),[21],-0.55
same,glycan array binding signal (z-score),[22],-0.833
same,glycan array binding signal (z-score),[23],-0.606
same,glycan array binding signal (z-score),[24],-0.345
same,glycan array binding signal (z-score),[25],0.348
same,glycan array binding signal (z-score),[26],-0.616
same,glycan array binding signal (z-score),[27],-0.195
same,glycan array binding signal (z-score),[28],0.86
same,glycan array binding signal (z-score),[29],3.63
same,glycan array binding signal (z-score),Neu5Ac(b2-6)GalNAc,-0.692
same,glycan array binding signal (z-score),[30],-0.665
same,glycan array binding signal (z-score),[31],-0.451
same,glycan array binding signal (z-score),[32],-0.534
same,glycan array binding signal (z-score),[33],0.568
same,glycan array binding signal (z-score),[34],0.025
same,glycan array binding signal (z-score),Neu5Gc(a2-3)Gal(b1-4)Glc,-0.38
same,glycan array binding signal (z-score),[35],0.184
same,glycan array binding signal (z-score),[36],-0.412
same,glycan array binding signal (z-score),[37],-0.228
same,glycan array binding signal (z-score),[38],0.445
same,glycan array binding signal (z-score),Neu5Gc(a2-6)GalNAc,-0.121
same,glycan array binding signal (z-score),[39],2.33
same,glycan array binding signal (z-score),[40],1.68

# A different layout for some results above:
binder	measurement	setting	value
DC-Sign-R (Homo sapiens), Q9H2X3 (protein) MSDSKEPRVQQLGLLEEDPTTSGIRLFPRDFQFQQIHGHKSSTGCLGHGALVLQLLSFMLLAGVLVAILVQVSKVPSSLSQEQSEQDAIYQNLTQLKAAVGELSEKSKLQEIYQELTQLKAAVGELPEKSKLQEIYQELTRLKAAVGELPEKSKLQEIYQELTRLKAAVGELPEKSKLQEIYQELTRLKAAVGELPEKSKLQEIYQELTELKAAVGELPEKSKLQEIYQELTQLKAAVGELPDQSKQQQIYQELTDLKTAFERLCRHCPKDWTFFQGNCYFMSNSQRNWHDSVTACQEVRAQLVVIKTAEEQNFLQLQTSRSNRFSWMGLSDLNQEGTWQWVDGSPLSPSFQRYWNSGEPNNSGNEDCAEFSGSGWNDNRCDVDNYWICKKPAACFRDE	glycan array binding signal (z-score)	[6]	0.007
same	glycan array binding signal (z-score)	[7]	1.5
same	glycan array binding signal (z-score)	[8]	-0.32

# Source: the supplement of paper PMC8728848
